# Measurements: patent publication US6586617B1, “Sulfonamide derivatives” (Sumitomo Chemical Takeda Agro Company, Limited, priority 1999, dated 2003)
# Some of these results come from one statement about several compounds together. For part of these data: For at least one compound, name, drawing or mass did not settle the structure.
# What was measured:
# Format in all cases: in vivo
# [1] = tested on: club root (Plasmodiophora brassicae); experiment: Test Example 4: preventive effects against club root of Komatsuna; settings: irrigated onto infected soil, 353.7 mg compound/m^2, Komatsuna, 4-6 weeks
# [2] = tested on: rice leaf spot (Cochliobolus miyabeanus); experiment: Test Example 2: protective effects against rice leaf spot; settings: spray solution as in Test Example 1 (200 ppm), 10 ml/pot, young rice plants, spore inoculation
# [3] = tested on: apple Alternaria leaf blotch (Alternaria mali); experiment: Test Example 3: protective effects against apple Alternaria leaf blotch; settings: spray solution as in Test Example 1 (200 ppm), 10 ml/pot, apple seedlings (Starking-Delicious)
SMILES,protection score [1],protection score [2],protection score [3]
"CON(c1ccc([N+](=O)[O-])cc1[N+](=O)[O-])S(=O)(=O)c1c(C)nn(C)c1Cl [Compound No. 552, 5-Chloro-1,3-dimethyl-N-(2,4-dinitrophenyl)-N-methoxy-4-pyrazolesulfonamide]",3 (degree of disease development is less than 25%),,
"Cc1ccc(S(=O)(=O)N(C)c2ccc(F)cc2[N+](=O)[O-])cc1 [compound 262, 4′-Fluoro-N-methyl-2′-nitro-p-toluenesulfonanilide]",,3 (the lesion area ratio on the treated plants relative to that on the untreated plants is less than 10%),3 (the lesioned area ratio is less than 10%)
"COc1ccc(N(C(C)C)S(=O)(=O)c2ccc(C)cc2)c([N+](=O)[O-])c1 [Compound No. 207, 4′-Methoxy-2′-nitro-N-isopropyl-p-toluenesulfonanilide]",,3 (the lesion area ratio on the treated plants relative to that on the untreated plants is less than 10%),3 (the lesioned area ratio is less than 10%)
"CON(c1ccc([N+](=O)[O-])cc1[N+](=O)[O-])S(=O)(=O)c1ccc(C)cc1 [Compound No. 545, 2′,4′-Dinitro-N-methoxy-p-toluenesulfonanilide]",3 (degree of disease development is less than 25%),,3 (the lesioned area ratio is less than 10%)
"Cc1ccc(S(=O)(=O)N(c2ccc(Cl)cc2[N+](=O)[O-])C2CC2)cc1 [Compound No. 292, 4′-Chloro-N-cyclopropyl-2′-nitro-p-toluenesulfonanilide]",,3 (the lesion area ratio on the treated plants relative to that on the untreated plants is less than 10%),3 (the lesioned area ratio is less than 10%)
"CON(c1ccc([N+](=O)[O-])cc1C#N)S(=O)(=O)c1ccc(Cl)c(C(F)(F)F)c1 [Compound No. 536, 4-Chloro-2′-cyano-N-methoxy-4′-nitro-3-(trifluoromethyl)benzenesulfonanilide]",3 (degree of disease development is less than 25%),,
"CCN(c1ccc(Cl)cc1[N+](=O)[O-])S(=O)(=O)c1ccc(C)cc1 [Compound No. 289, 4′-Chloro-N-ethyl-2′-nitro-p-toluenesulfonanilide]",,3 (the lesion area ratio on the treated plants relative to that on the untreated plants is less than 10%),3 (the lesioned area ratio is less than 10%)
Cc1ccc(S(=O)(=O)N(c2ccc(C#N)cc2C#N)S(=O)(=O)c2ccc(C)cc2)cc1 [compound 115],3 (degree of disease development is less than 25%),,
"CON(c1ccc([N+](=O)[O-])cc1C#N)S(=O)(=O)c1ccc(Cl)s1 [Compound No. 537, 5-Chloro-N-(2-cyano-4-nitrophenyl)-N-methoxy-2-thiophenesulfonamide]",3 (degree of disease development is less than 25%),,
Cc1ccc(S(=O)(=O)N(C(=O)CCl)c2ccc(Cl)cc2[N+](=O)[O-])cc1 [compound 312],3 (degree of disease development is less than 25%),,
"COc1nsc(N(OC)S(=O)(=O)c2ccc(C)cc2)c1C#N [Compound No. 560, N-(4-Cyano-3-methoxy-5-isothiazolyl)-N-methoxy-p-toluenesulfon anilide]",3 (degree of disease development is less than 25%),,
"CON(c1ccc([N+](=O)[O-])cc1Cl)S(=O)(=O)c1cccc(C(F)(F)F)c1 [Compound No. 529, 2′-Chloro-N-methoxy-4′-nitro-3-trifluoromethylbenzenesulfonanilide]",3 (degree of disease development is less than 25%),,
"CON(c1ccc([N+](=O)[O-])cc1C#N)S(=O)(=O)c1ccc(C)cc1 [Compound No. 535, 2′-Cyano-N-methoxy-4′-nitro-p-toluenesulfonanilide]",3 (degree of disease development is less than 25%),,3 (the lesioned area ratio is less than 10%)
CON(c1ccc([N+](=O)[O-])cc1F)S(=O)(=O)c1ccc(C)cc1 [compound 523],,,3 (the lesioned area ratio is less than 10%)
CCN(c1ccc(C(N)=O)cc1C#N)S(=O)(=O)c1ccc(C)cc1 [compound 111],,,3 (the lesioned area ratio is less than 10%)
CN(c1ccc(Cl)cc1[N+](=O)[O-])S(=O)(=O)c1cccnc1 [compound 387],,,3 (the lesioned area ratio is less than 10%)
Cc1ccc(S(=O)(=O)N(c2ccc([N+](=O)[O-])cc2[N+](=O)[O-])C(C)C)cc1 [Compound No. 437],,,3 (the lesioned area ratio is less than 10%)
CCN(c1ccc(C#N)cc1[N+](=O)[O-])S(=O)(=O)c1ccc(Cl)cc1 [compound 412],,,3 (the lesioned area ratio is less than 10%)

SMILES,protection score [1],protection score [2],protection score [3]
CC(C)N(c1ccc(Cl)cc1[N+](=O)[O-])S(=O)(=O)c1ccc(Cl)cc1 [compound 340],,,3 (the lesioned area ratio is less than 10%)
CON(c1ccc([N+](=O)[O-])cc1[N+](=O)[O-])S(=O)(=O)c1ccc(F)cc1 [compound 567],,,3 (the lesioned area ratio is less than 10%)
"CC(C)N(c1ccc(C#N)cc1[N+](=O)[O-])S(=O)(=O)c1ccc(Cl)cc1 [Compound No. 413, 4-Chloro-4′-cyano-2′-nitro-N-(isopropyl)-benzenesulfonanilide]",,,3 (the lesioned area ratio is less than 10%)
Cc1ccc(S(=O)(=O)N(C)c2ccccc2C(F)(F)F)cc1 [Compound No. 30],,,3 (the lesioned area ratio is less than 10%)
CON(c1ccc([N+](=O)[O-])cc1C)S(=O)(=O)c1ccc(C)cc1 [compound 522],,,3 (the lesioned area ratio is less than 10%)
CON(c1ccc([N+](=O)[O-])cc1Cl)S(=O)(=O)c1ccc(C)cc1 [Compound No. 525],3 (degree of disease development is less than 25%),,3 (the lesioned area ratio is less than 10%)
CON(c1ccc(Cl)cc1[N+](=O)[O-])S(=O)(=O)c1ccc(C)cc1 [compound 540],,,3 (the lesioned area ratio is less than 10%)
CC(C)N(c1ccc(Cl)cc1[N+](=O)[O-])S(=O)(=O)c1ccc(F)cc1 [compound 332],,,3 (the lesioned area ratio is less than 10%)
Cc1ccc(S(=O)(=O)N(C)c2ncc([N+](=O)[O-])cc2[N+](=O)[O-])cc1 [compound 503],,,3 (the lesioned area ratio is less than 10%)
"Cc1ccc(S(=O)(=O)N(C)c2ccc(Cl)cc2C(N)=S)cc1 [Compound No. 83, 4′-Chloro-N-methyl-2′-thiocarbamoyl-p-toluenesulfonanilide]",,,3 (the lesioned area ratio is less than 10%)
CCCN(c1ccc(OC)cc1[N+](=O)[O-])S(=O)(=O)c1ccc(C)cc1 [compound 206],,,3 (the lesioned area ratio is less than 10%)
"CCN(c1ccc(Cl)cc1C(=N)SC)S(=O)(=O)c1ccc(C)cc1.I [Compound No. 87, Methyl 5-Chloro-2-(N-ethyl-N-p-toluenesulfonyl)aminobenzthioimidate Hydroiodic Acid Salt]",,,3 (the lesioned area ratio is less than 10%)
CCN(c1ccc(OC)cc1[N+](=O)[O-])S(=O)(=O)c1ccc(C)cc1 [compound 205],,,3 (the lesioned area ratio is less than 10%)
"CON(c1ccc([N+](=O)[O-])cc1Cl)S(=O)(=O)c1cc(Cl)ccc1Cl [Compound No. 528, N-Methoxy-4′-nitro-2,2′,5-trichlorobenzenesulfonanilide]",3 (degree of disease development is less than 25%),,
CN(c1ccc(Cl)cc1[N+](=O)[O-])S(=O)(=O)c1ccc(Cl)cc1 [compound 337],,,3 (the lesioned area ratio is less than 10%)
CCN(c1ccc(C#N)cc1[N+](=O)[O-])S(=O)(=O)c1ccc(C#N)cc1 [compound 414],,,3 (the lesioned area ratio is less than 10%)
"Cc1ccc(S(=O)(=O)N(C)c2ccc(Br)cc2[N+](=O)[O-])cc1 [Compound No. 398, 4′-Bromo-N-methyl-2′-nitro-p-toluenesulfonanilide]",,,3 (the lesioned area ratio is less than 10%)
